Data: the supplement of paper PMC7666118
Some of the results follow.

By UniProt entry, the sequences of proteins in these tests, tags left out. Where a name states a change or a piece, a line headed by the entry shows the natural chain unless it says otherwise.
UniProt Q9NXG2: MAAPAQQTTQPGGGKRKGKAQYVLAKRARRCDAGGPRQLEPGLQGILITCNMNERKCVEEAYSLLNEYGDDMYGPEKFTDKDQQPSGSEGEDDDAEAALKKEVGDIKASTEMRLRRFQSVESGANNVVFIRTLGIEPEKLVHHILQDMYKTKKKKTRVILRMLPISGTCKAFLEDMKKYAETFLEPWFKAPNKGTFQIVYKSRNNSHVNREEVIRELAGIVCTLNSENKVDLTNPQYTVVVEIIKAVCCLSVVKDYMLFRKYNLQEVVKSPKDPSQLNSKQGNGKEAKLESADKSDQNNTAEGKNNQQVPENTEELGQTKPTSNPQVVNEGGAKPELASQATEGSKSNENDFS
UniProt Q9H6X4: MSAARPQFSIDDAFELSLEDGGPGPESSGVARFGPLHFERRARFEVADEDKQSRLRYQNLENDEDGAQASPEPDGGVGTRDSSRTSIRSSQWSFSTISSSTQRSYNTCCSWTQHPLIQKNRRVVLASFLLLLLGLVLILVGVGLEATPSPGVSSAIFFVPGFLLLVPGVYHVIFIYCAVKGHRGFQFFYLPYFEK
UniProt Q9NSU2: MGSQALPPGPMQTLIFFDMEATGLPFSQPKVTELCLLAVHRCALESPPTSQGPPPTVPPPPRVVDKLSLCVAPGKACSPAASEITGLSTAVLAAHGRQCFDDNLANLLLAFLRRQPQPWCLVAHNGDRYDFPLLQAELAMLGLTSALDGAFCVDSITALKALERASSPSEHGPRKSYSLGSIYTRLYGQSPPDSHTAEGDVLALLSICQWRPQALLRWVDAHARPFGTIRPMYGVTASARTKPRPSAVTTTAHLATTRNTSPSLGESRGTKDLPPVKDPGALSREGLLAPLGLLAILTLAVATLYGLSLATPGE
UniProt Q9BSA9: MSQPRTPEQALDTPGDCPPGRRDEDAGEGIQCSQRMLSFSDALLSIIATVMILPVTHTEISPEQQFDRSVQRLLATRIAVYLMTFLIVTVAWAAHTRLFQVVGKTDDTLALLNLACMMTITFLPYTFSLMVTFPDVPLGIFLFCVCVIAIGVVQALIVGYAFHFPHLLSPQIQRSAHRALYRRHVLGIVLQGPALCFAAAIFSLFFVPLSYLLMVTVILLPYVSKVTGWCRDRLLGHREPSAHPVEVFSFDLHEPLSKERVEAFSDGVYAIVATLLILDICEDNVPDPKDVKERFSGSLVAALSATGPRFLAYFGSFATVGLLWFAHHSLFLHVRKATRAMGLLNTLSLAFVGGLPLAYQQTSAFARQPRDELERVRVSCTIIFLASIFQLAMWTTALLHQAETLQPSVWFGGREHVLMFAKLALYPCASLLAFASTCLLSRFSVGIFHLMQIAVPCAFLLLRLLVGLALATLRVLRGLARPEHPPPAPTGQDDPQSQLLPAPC
UniProt Q2NL82: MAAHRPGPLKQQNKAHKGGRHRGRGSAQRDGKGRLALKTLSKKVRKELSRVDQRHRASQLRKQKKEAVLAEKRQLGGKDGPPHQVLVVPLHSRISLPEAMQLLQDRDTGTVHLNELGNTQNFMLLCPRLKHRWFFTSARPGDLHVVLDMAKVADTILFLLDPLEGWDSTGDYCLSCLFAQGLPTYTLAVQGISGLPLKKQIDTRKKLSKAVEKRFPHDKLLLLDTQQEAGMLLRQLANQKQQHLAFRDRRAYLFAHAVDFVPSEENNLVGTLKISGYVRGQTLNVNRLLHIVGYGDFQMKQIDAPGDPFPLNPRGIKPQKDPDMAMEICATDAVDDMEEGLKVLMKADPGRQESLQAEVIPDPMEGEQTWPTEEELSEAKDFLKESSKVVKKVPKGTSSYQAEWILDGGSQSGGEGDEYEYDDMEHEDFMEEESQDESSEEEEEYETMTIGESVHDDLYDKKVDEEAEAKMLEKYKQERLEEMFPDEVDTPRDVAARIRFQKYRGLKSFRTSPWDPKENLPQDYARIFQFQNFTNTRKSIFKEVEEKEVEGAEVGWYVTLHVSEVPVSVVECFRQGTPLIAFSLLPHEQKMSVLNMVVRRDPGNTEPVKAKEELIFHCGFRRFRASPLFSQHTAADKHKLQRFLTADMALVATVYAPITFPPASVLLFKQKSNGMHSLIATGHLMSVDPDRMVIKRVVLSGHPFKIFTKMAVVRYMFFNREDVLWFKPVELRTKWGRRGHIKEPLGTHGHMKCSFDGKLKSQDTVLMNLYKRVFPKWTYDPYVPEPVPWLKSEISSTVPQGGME
UniProt Q12999: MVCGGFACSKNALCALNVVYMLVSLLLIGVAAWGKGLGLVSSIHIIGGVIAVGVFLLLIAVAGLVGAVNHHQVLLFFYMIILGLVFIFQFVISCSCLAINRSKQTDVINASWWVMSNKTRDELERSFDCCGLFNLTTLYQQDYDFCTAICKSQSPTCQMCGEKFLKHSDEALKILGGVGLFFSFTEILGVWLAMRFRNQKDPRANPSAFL
UniProt Q9P0T7: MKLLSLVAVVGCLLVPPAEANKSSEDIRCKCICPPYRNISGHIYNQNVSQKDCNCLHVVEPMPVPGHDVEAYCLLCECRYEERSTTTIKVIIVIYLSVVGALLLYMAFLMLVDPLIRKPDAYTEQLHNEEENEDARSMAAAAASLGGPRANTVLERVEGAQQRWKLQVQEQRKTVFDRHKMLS
UniProt Q9Y3Q8: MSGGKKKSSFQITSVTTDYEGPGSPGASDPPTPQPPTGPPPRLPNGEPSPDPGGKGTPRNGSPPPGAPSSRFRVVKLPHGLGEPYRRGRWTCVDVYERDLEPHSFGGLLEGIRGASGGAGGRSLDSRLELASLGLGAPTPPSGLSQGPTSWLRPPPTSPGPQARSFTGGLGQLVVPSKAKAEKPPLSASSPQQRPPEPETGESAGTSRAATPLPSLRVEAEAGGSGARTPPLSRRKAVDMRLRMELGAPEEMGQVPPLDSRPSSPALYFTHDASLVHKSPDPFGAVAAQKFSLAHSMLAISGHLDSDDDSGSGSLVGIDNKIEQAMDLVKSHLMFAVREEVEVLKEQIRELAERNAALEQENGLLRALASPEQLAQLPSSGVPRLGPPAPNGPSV
UniProt Q15631: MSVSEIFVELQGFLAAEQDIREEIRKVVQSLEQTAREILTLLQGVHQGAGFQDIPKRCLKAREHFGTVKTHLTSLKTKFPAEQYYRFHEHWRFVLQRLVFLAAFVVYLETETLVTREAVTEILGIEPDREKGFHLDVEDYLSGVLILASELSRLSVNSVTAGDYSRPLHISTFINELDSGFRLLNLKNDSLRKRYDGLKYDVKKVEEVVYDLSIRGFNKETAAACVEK
UniProt P55327: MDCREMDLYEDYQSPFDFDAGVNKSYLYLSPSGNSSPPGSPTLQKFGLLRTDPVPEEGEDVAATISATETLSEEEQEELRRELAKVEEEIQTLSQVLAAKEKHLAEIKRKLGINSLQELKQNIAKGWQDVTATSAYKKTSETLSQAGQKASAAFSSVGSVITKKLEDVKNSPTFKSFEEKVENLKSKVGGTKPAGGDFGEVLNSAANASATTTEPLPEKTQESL
UniProt Q9BVK6: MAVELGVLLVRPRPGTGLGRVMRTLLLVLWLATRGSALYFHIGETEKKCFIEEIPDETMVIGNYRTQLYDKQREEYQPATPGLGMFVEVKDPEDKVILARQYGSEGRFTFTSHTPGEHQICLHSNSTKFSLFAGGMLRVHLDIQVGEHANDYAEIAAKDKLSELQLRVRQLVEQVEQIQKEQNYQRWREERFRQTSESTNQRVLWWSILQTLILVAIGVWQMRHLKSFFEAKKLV
UniProt Q15363: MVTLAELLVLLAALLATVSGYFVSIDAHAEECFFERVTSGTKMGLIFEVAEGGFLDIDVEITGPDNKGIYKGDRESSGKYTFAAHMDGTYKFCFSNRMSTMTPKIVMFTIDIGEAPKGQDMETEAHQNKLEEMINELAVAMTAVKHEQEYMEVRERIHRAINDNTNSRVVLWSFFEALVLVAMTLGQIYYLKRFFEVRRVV
UniProt Q9BTV4: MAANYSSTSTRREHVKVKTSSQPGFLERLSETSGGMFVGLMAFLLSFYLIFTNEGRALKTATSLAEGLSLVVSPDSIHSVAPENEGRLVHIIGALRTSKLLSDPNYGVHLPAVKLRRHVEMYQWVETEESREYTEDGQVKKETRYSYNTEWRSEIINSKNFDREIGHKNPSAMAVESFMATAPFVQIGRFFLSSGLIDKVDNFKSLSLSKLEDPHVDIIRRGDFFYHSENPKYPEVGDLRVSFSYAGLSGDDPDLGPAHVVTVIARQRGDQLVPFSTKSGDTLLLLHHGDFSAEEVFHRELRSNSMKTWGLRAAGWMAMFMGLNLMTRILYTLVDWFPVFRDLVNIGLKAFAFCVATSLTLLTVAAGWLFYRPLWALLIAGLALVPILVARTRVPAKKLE
UniProt Q15629: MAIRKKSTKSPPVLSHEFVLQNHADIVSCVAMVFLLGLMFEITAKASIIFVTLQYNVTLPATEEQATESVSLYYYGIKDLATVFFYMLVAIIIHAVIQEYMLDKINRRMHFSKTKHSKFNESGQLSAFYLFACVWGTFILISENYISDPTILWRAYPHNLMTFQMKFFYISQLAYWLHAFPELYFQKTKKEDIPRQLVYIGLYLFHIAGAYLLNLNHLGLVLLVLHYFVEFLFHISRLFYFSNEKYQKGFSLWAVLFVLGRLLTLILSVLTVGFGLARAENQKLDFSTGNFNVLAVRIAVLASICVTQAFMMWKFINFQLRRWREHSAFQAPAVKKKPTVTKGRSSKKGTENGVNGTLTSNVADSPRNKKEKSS
UniProt Q13114: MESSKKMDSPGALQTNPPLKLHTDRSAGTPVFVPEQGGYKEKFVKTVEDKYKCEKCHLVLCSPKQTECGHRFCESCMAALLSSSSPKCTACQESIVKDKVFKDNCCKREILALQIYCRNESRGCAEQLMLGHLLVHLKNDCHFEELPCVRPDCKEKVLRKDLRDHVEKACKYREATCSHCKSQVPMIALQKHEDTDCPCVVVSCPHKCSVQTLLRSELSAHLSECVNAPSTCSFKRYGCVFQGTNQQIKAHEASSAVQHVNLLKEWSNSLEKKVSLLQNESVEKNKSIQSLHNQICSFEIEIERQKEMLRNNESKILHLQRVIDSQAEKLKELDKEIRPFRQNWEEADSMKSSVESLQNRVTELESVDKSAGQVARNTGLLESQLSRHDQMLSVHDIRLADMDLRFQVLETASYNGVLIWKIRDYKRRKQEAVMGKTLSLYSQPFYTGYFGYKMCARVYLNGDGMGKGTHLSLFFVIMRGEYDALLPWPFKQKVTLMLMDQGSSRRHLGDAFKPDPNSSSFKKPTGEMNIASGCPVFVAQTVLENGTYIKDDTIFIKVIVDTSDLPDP
UniProt Q86TN4: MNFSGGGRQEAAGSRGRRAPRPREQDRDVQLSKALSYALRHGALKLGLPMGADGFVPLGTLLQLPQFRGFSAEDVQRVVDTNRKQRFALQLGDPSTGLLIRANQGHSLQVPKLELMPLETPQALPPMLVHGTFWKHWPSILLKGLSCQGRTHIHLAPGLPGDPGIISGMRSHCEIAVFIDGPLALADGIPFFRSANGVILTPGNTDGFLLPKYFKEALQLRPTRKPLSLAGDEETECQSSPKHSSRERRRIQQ
UniProt P19474, whole entry: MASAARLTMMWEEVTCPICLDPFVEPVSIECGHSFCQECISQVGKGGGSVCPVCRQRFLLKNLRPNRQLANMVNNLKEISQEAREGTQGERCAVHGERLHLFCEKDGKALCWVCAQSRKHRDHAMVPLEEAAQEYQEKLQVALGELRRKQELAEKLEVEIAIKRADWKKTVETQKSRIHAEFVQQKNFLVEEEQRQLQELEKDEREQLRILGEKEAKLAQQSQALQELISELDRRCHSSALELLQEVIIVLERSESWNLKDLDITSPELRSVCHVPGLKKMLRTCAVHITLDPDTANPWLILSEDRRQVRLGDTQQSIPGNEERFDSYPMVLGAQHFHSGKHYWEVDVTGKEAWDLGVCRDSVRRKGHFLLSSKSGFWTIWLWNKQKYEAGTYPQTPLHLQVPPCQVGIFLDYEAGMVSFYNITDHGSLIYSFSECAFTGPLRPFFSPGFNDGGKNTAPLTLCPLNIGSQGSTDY
UniProt Q9Y5R8, whole entry: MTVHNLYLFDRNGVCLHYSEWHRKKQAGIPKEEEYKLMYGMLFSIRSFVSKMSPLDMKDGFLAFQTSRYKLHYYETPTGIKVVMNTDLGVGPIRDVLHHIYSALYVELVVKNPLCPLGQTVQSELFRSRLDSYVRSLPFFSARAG
UniProt Q6PJ69: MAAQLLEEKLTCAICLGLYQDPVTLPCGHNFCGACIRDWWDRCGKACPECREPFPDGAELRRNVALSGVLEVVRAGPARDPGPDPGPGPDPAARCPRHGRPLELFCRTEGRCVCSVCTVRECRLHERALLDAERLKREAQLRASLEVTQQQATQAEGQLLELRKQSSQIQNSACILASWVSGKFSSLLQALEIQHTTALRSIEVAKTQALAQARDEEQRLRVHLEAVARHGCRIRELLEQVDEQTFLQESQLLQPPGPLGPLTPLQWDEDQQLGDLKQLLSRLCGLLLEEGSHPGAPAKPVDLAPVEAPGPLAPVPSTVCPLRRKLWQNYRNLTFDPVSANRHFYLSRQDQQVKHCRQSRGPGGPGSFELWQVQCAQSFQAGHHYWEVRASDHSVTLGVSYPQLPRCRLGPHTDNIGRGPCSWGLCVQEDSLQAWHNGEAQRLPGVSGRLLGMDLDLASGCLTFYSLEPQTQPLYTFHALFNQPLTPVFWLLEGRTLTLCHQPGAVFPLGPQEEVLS

compound: COc1ccc(Cn2ccc3cc(C)c(C(=O)NO)cc32)cc1; assay: dose-dependent thermal stabilisation call (2D-TPP, DLPTP, 10% FDR) (binary (1 = stabilised)); higher = stabilised by the compound; settings: system: HL-60 intact cells; concentration range 0.04-10 µM
Method: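 2D thermal proteome profiling in intact HL-60 cells treated with BRD-3811 (0, 0.04, 0.29, 2, 10 uM) for 90 min at 37 C, then heated 3 min at one of 12 temperatures (42-63.9 C). Soluble protein was quantified by TMT10 MS. The value is the DLPTP call of the paper: dose-dependent thermal stabilisation over all temperatures at 10% FDR (F-test of a dose-response against a flat model); one experiment, one call per tested protein.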

Target	dose-dependent thermal stabilisation call
THUMPD1 (UniProt Q9NXG2)	inactive: 0
TIA1 (UniProt P31483)	inactive: 0
TMEM134 (UniProt Q9H6X4)	inactive: 0
TREX1 (UniProt Q9NSU2)	inactive: 0
TRAF2 (UniProt Q12933)	inactive: 0
TMEM175 (UniProt Q9BSA9)	inactive: 0
THTPA (UniProt Q9BU02)	inactive: 0
TSR1 (UniProt Q2NL82)	inactive: 0
TSPAN31 (UniProt Q12999)	inactive: 0
TRIM5 (UniProt Q9C035)	inactive: 0
TM9SF4 (UniProt Q92544)	inactive: 0
TPMT (UniProt P51580)	inactive: 0
TLN1 (UniProt Q9Y490)	inactive: 0
TMEM9 (UniProt Q9P0T7)	inactive: 0
TSC22D4 (UniProt Q9Y3Q8)	inactive: 0
TSN (UniProt Q15631)	inactive: 0
TRPM7 (UniProt Q96QT4)	inactive: 0
TPD52 (UniProt P55327)	inactive: 0

Target	dose-dependent thermal stabilisation call
TMED9 (UniProt Q9BVK6)	inactive: 0
TMED2 (UniProt Q15363)	inactive: 0
TMEM43 (UniProt Q9BTV4)	inactive: 0
TMEM102 (UniProt Q8N9M5)	inactive: 0
TOR2A	inactive: 0
TRAM1 (UniProt Q15629)	inactive: 0
TMEM214 (UniProt Q6NUQ4)	inactive: 0
TRAF3 (UniProt Q13114)	inactive: 0
TMCO7 (UniProt Q9C0B7)	inactive: 0
TRIP11 (UniProt Q15643)	inactive: 0
TRPT1 (UniProt Q86TN4)	inactive: 0
TRIM21 (UniProt P19474)	inactive: 0
TRAPPC1 (UniProt Q9Y5R8)	inactive: 0
TRUB2 (UniProt O95900)	inactive: 0
TMEM161B (UniProt Q8NDZ6)	inactive: 0
TRIM16 (UniProt O95361)	inactive: 0
TRIM65 (UniProt Q6PJ69)	inactive: 0
TPCN1 (UniProt Q9ULQ1)	inactive: 0

Fetched one by one from above:
Target	dose-dependent thermal stabilisation call
TMCO7 (UniProt Q9C0B7)	inactive: 0
TMEM102 (UniProt Q8N9M5)	inactive: 0
